This is an account of results in patent US20240123070A1, “EPITOPE PEPTIDE OF RAS G13D MUTANT AND T CELL RECEPTOR RECOGNIZING RAS G13D MUTANT” (SHANGHAI GENBASE BIOTECHNOLOGY CO., LTD., priority 2021, published 2024).

To fix the notation:
B1: β95Q-A: B8.2.4 TCR point mutant, Vβ-CDR3 95Q to A; CDR3β ASSATVPPQH (protein)
TCR alpha: AQKITQTQPGMFVQEKEAVTLDCTYDTSDPSYGLFWYKQPSSGEMIFLIYQGSYDQQNATEGRYSLNFQKARKSANLVISASQLGDSAMYFCAMRERTGTASKLTFGTGTRLQVTLDIQNPEPAVYQLKDPRSQDSTLCLFTDFDSQINVPKTMESGTFITDKTVLDMKAMDSKSNGAIAWSNQTSFTCQDIFKETNATYPSSDVPCDATLTEKSFETDMNLNFQNLSVMGLRILLLKVAGFNLLMTLRLWSS
TCR beta: DVKVTQSSRYLVKRTGEKVFLECVQDMDHENMFWYRQDPGLGLRLIYFSYDVKMKEKGDIPEGYSVSREKKERFSLILESASTNQTSMYLCASSATVPPQHFGDGTRLSILEDLRNVTPPKVSLFEPSKAEIANKQKATLVCLARGFFPDHVELSWWVNGKEVHSGVSTDPQAYKESNYSYCLSSRLRVSATFWHNPRNHFRCQVQFHGLSEEDKWPEGSPKPVTQNISAEAWGRADCGITSASYQQGVLSATILYEILLGKATLYAVLVSTLVVMAMVKRKNS
B2: β95Q-C: B8.2.4 TCR point mutant, Vβ-CDR3 95Q to C; CDR3β ASSCTVPPQH (protein)
TCR alpha: AQKITQTQPGMFVQEKEAVTLDCTYDTSDPSYGLFWYKQPSSGEMIFLIYQGSYDQQNATEGRYSLNFQKARKSANLVISASQLGDSAMYFCAMRERTGTASKLTFGTGTRLQVTLDIQNPEPAVYQLKDPRSQDSTLCLFTDFDSQINVPKTMESGTFITDKTVLDMKAMDSKSNGAIAWSNQTSFTCQDIFKETNATYPSSDVPCDATLTEKSFETDMNLNFQNLSVMGLRILLLKVAGFNLLMTLRLWSS
TCR beta: DVKVTQSSRYLVKRTGEKVFLECVQDMDHENMFWYRQDPGLGLRLIYFSYDVKMKEKGDIPEGYSVSREKKERFSLILESASTNQTSMYLCASSCTVPPQHFGDGTRLSILEDLRNVTPPKVSLFEPSKAEIANKQKATLVCLARGFFPDHVELSWWVNGKEVHSGVSTDPQAYKESNYSYCLSSRLRVSATFWHNPRNHFRCQVQFHGLSEEDKWPEGSPKPVTQNISAEAWGRADCGITSASYQQGVLSATILYEILLGKATLYAVLVSTLVVMAMVKRKNS
B3: β95Q-F: B8.2.4 TCR point mutant, Vβ-CDR3 95Q to F (protein)
TCR alpha: AQKITQTQPGMFVQEKEAVTLDCTYDTSDPSYGLFWYKQPSSGEMIFLIYQGSYDQQNATEGRYSLNFQKARKSANLVISASQLGDSAMYFCAMRERTGTASKLTFGTGTRLQVTLDIQNPEPAVYQLKDPRSQDSTLCLFTDFDSQINVPKTMESGTFITDKTVLDMKAMDSKSNGAIAWSNQTSFTCQDIFKETNATYPSSDVPCDATLTEKSFETDMNLNFQNLSVMGLRILLLKVAGFNLLMTLRLWSS
TCR beta: DVKVTQSSRYLVKRTGEKVFLECVQDMDHENMFWYRQDPGLGLRLIYFSYDVKMKEKGDIPEGYSVSREKKERFSLILESASTNQTSMYLCASSFTVPPQHFGDGTRLSILEDLRNVTPPKVSLFEPSKAEIANKQKATLVCLARGFFPDHVELSWWVNGKEVHSGVSTDPQAYKESNYSYCLSSRLRVSATFWHNPRNHFRCQVQFHGLSEEDKWPEGSPKPVTQNISAEAWGRADCGITSASYQQGVLSATILYEILLGKATLYAVLVSTLVVMAMVKRKNS
B4: β95Q-K: B8.2.4 TCR point mutant, Vβ-CDR3 95Q to K (protein)
TCR alpha: AQKITQTQPGMFVQEKEAVTLDCTYDTSDPSYGLFWYKQPSSGEMIFLIYQGSYDQQNATEGRYSLNFQKARKSANLVISASQLGDSAMYFCAMRERTGTASKLTFGTGTRLQVTLDIQNPEPAVYQLKDPRSQDSTLCLFTDFDSQINVPKTMESGTFITDKTVLDMKAMDSKSNGAIAWSNQTSFTCQDIFKETNATYPSSDVPCDATLTEKSFETDMNLNFQNLSVMGLRILLLKVAGFNLLMTLRLWSS
TCR beta: DVKVTQSSRYLVKRTGEKVFLECVQDMDHENMFWYRQDPGLGLRLIYFSYDVKMKEKGDIPEGYSVSREKKERFSLILESASTNQTSMYLCASSKTVPPQHFGDGTRLSILEDLRNVTPPKVSLFEPSKAEIANKQKATLVCLARGFFPDHVELSWWVNGKEVHSGVSTDPQAYKESNYSYCLSSRLRVSATFWHNPRNHFRCQVQFHGLSEEDKWPEGSPKPVTQNISAEAWGRADCGITSASYQQGVLSATILYEILLGKATLYAVLVSTLVVMAMVKRKNS
B5: β95Q-G: B8.2.4 TCR point mutant, Vβ-CDR3 95Q to G; CDR3β ASSGTVPPQH (protein)
TCR alpha: AQKITQTQPGMFVQEKEAVTLDCTYDTSDPSYGLFWYKQPSSGEMIFLIYQGSYDQQNATEGRYSLNFQKARKSANLVISASQLGDSAMYFCAMRERTGTASKLTFGTGTRLQVTLDIQNPEPAVYQLKDPRSQDSTLCLFTDFDSQINVPKTMESGTFITDKTVLDMKAMDSKSNGAIAWSNQTSFTCQDIFKETNATYPSSDVPCDATLTEKSFETDMNLNFQNLSVMGLRILLLKVAGFNLLMTLRLWSS
TCR beta: DVKVTQSSRYLVKRTGEKVFLECVQDMDHENMFWYRQDPGLGLRLIYFSYDVKMKEKGDIPEGYSVSREKKERFSLILESASTNQTSMYLCASSGTVPPQHFGDGTRLSILEDLRNVTPPKVSLFEPSKAEIANKQKATLVCLARGFFPDHVELSWWVNGKEVHSGVSTDPQAYKESNYSYCLSSRLRVSATFWHNPRNHFRCQVQFHGLSEEDKWPEGSPKPVTQNISAEAWGRADCGITSASYQQGVLSATILYEILLGKATLYAVLVSTLVVMAMVKRKNS
B6: β95Q-I: B8.2.4 TCR point mutant, Vβ-CDR3 95Q to I; CDR3β ASSITVPPQH (protein)
TCR alpha: AQKITQTQPGMFVQEKEAVTLDCTYDTSDPSYGLFWYKQPSSGEMIFLIYQGSYDQQNATEGRYSLNFQKARKSANLVISASQLGDSAMYFCAMRERTGTASKLTFGTGTRLQVTLDIQNPEPAVYQLKDPRSQDSTLCLFTDFDSQINVPKTMESGTFITDKTVLDMKAMDSKSNGAIAWSNQTSFTCQDIFKETNATYPSSDVPCDATLTEKSFETDMNLNFQNLSVMGLRILLLKVAGFNLLMTLRLWSS
TCR beta: DVKVTQSSRYLVKRTGEKVFLECVQDMDHENMFWYRQDPGLGLRLIYFSYDVKMKEKGDIPEGYSVSREKKERFSLILESASTNQTSMYLCASSITVPPQHFGDGTRLSILEDLRNVTPPKVSLFEPSKAEIANKQKATLVCLARGFFPDHVELSWWVNGKEVHSGVSTDPQAYKESNYSYCLSSRLRVSATFWHNPRNHFRCQVQFHGLSEEDKWPEGSPKPVTQNISAEAWGRADCGITSASYQQGVLSATILYEILLGKATLYAVLVSTLVVMAMVKRKNS
B7: β95Q-D: B8.2.4 TCR point mutant, Vβ-CDR3 95Q to D; CDR3β ASSDTVPPQH (protein)
TCR alpha: AQKITQTQPGMFVQEKEAVTLDCTYDTSDPSYGLFWYKQPSSGEMIFLIYQGSYDQQNATEGRYSLNFQKARKSANLVISASQLGDSAMYFCAMRERTGTASKLTFGTGTRLQVTLDIQNPEPAVYQLKDPRSQDSTLCLFTDFDSQINVPKTMESGTFITDKTVLDMKAMDSKSNGAIAWSNQTSFTCQDIFKETNATYPSSDVPCDATLTEKSFETDMNLNFQNLSVMGLRILLLKVAGFNLLMTLRLWSS
TCR beta: DVKVTQSSRYLVKRTGEKVFLECVQDMDHENMFWYRQDPGLGLRLIYFSYDVKMKEKGDIPEGYSVSREKKERFSLILESASTNQTSMYLCASSDTVPPQHFGDGTRLSILEDLRNVTPPKVSLFEPSKAEIANKQKATLVCLARGFFPDHVELSWWVNGKEVHSGVSTDPQAYKESNYSYCLSSRLRVSATFWHNPRNHFRCQVQFHGLSEEDKWPEGSPKPVTQNISAEAWGRADCGITSASYQQGVLSATILYEILLGKATLYAVLVSTLVVMAMVKRKNS
B8: β95Q-E: B8.2.4 TCR point mutant, Vβ-CDR3 95Q to E; CDR3β ASSETVPPQH (protein)
TCR alpha: AQKITQTQPGMFVQEKEAVTLDCTYDTSDPSYGLFWYKQPSSGEMIFLIYQGSYDQQNATEGRYSLNFQKARKSANLVISASQLGDSAMYFCAMRERTGTASKLTFGTGTRLQVTLDIQNPEPAVYQLKDPRSQDSTLCLFTDFDSQINVPKTMESGTFITDKTVLDMKAMDSKSNGAIAWSNQTSFTCQDIFKETNATYPSSDVPCDATLTEKSFETDMNLNFQNLSVMGLRILLLKVAGFNLLMTLRLWSS
TCR beta: DVKVTQSSRYLVKRTGEKVFLECVQDMDHENMFWYRQDPGLGLRLIYFSYDVKMKEKGDIPEGYSVSREKKERFSLILESASTNQTSMYLCASSETVPPQHFGDGTRLSILEDLRNVTPPKVSLFEPSKAEIANKQKATLVCLARGFFPDHVELSWWVNGKEVHSGVSTDPQAYKESNYSYCLSSRLRVSATFWHNPRNHFRCQVQFHGLSEEDKWPEGSPKPVTQNISAEAWGRADCGITSASYQQGVLSATILYEILLGKATLYAVLVSTLVVMAMVKRKNS
B9: β95Q-H: B8.2.4 TCR point mutant, Vβ-CDR3 95Q to H; CDR3β ASSHTVPPQH (protein)
TCR alpha: AQKITQTQPGMFVQEKEAVTLDCTYDTSDPSYGLFWYKQPSSGEMIFLIYQGSYDQQNATEGRYSLNFQKARKSANLVISASQLGDSAMYFCAMRERTGTASKLTFGTGTRLQVTLDIQNPEPAVYQLKDPRSQDSTLCLFTDFDSQINVPKTMESGTFITDKTVLDMKAMDSKSNGAIAWSNQTSFTCQDIFKETNATYPSSDVPCDATLTEKSFETDMNLNFQNLSVMGLRILLLKVAGFNLLMTLRLWSS
TCR beta: DVKVTQSSRYLVKRTGEKVFLECVQDMDHENMFWYRQDPGLGLRLIYFSYDVKMKEKGDIPEGYSVSREKKERFSLILESASTNQTSMYLCASSHTVPPQHFGDGTRLSILEDLRNVTPPKVSLFEPSKAEIANKQKATLVCLARGFFPDHVELSWWVNGKEVHSGVSTDPQAYKESNYSYCLSSRLRVSATFWHNPRNHFRCQVQFHGLSEEDKWPEGSPKPVTQNISAEAWGRADCGITSASYQQGVLSATILYEILLGKATLYAVLVSTLVVMAMVKRKNS

The data set deals with murine TCRβ constant region. The experiment in a line: mTCRβ expression detection on Jurkat-NFAT-Luc cells. Type of data set: cell-based. The conditions noted are these: TCR mutant transduced Jurkat-NFAT-Luc cells.
B1: the mTCRβ % came out at 74.9%.
In the case of B2 it was 82.1%.
In the case of B3 it was 80%.
Then B4, with 73.7%; and B5, with 76.6%.
Consider B6, for which the mTCRβ % is 75.6%.
Then B7, with 77.1%; and B8, with 36.5%.
Then B9, with 69.2%.
